# Small-molecule microarray binding calls

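Compounds were printed on reactive glass slides in duplicate spots, a dye-labelled oligonucleotide was laid over them, and the fluorescence left after washing was read. The data file lists only calls. An earlier report of the laboratory on the PreQ1, TPP and SAM-II riboswitches (doi:10.1038/s41467-019-09493-3) used 1 µM RNA for 2 h and required a mean Z-score above 3 (spot signal-to-noise against the whole library), a score well above that on a control array, and duplicate spots agreeing (coefficient of variation under 100); it then also set aside compounds that hit other targets, which this list keeps. The cut-offs behind this list may differ. These are primary screening calls, not affinities; a compound without a hit may have attached poorly or may still bind in solution.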
A compound is marked active if it was called a hit and inactive if it was screened but was not.
This is an unselected part of the compounds tested.
A target missing from an entry has no call listed here.

Targets (5′ to 3′):
TPP: TPP riboswitch RNA three-way junction, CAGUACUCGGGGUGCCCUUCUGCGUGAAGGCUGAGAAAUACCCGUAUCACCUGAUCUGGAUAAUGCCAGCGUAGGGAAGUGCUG. About 24,000 compounds screened, about 160 hits.
SAM-II: SAM-II riboswitch RNA pseudoknot, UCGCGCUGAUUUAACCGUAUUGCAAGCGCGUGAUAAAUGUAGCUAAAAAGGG. About 21,000 compounds screened, about 200 hits.
PreQ1: PreQ1 riboswitch RNA pseudoknot, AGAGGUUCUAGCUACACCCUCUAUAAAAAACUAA. From B. subtilis. About 24,000 compounds screened, about 170 hits.

{"compound": "NCc1c(O)ccc2ccccc12", "TPP": "inactive", "SAM-II": "inactive", "PreQ1": "inactive"}
{"compound": "CC(C)CC(O)C1CCN(c2nccnc2N(C)C)CC1", "stereo": "configuration not stated", "TPP": "inactive", "SAM-II": "inactive", "PreQ1": "inactive"}
{"compound": "Fc1cc(-c2cccc3ncc(-c4cnn(C5CCNCC5)c4)nc23)cc(F)c1CN1CCOCC1", "TPP": "inactive", "SAM-II": "inactive", "PreQ1": "inactive"}
{"compound": "O=C(N[C@H]1CC[C@H]1NC1CCOCC1)c1ccccc1-c1ccccc1F", "TPP": "inactive", "SAM-II": "inactive", "PreQ1": "inactive"}
{"compound": "Cc1ccc2c(N)c(C(=O)Nc3cccc(C(F)(F)F)c3)sc2n1", "TPP": "inactive", "SAM-II": "inactive", "PreQ1": "inactive"}
{"compound": "Cn1cnc(CCN2Cc3c(C(=O)NCCO)cccc3C2=O)c1", "TPP": "inactive", "SAM-II": "inactive", "PreQ1": "inactive"}
{"compound": "Cn1c(CNc2ccc(F)cc2)nc2ccccc21", "TPP": "inactive", "SAM-II": "inactive", "PreQ1": "inactive"}
{"compound": "COc1ccc(-c2ccc(CNCC(O)c3ccccc3)o2)cc1Cl", "stereo": "configuration not stated", "TPP": "inactive", "PreQ1": "inactive"}
{"compound": "CCOC(=O)c1c(N)sc(C(=O)Nc2cc(C(F)(F)F)ccc2Cl)c1C", "TPP": "inactive", "SAM-II": "inactive", "PreQ1": "inactive"}
{"compound": "Cc1cc2c(cc1CC(=O)c1sccc1S(=O)(=O)Nc1onc(C)c1Cl)OCO2", "TPP": "inactive", "SAM-II": "inactive", "PreQ1": "inactive"}
{"compound": "Cc1ncccc1OC1(C(=O)NCCCN2CCOCC2)CCNCC1", "TPP": "inactive", "SAM-II": "inactive", "PreQ1": "inactive"}
{"compound": "O=C(NCCCc1ccccc1)c1nn(-c2ccccc2)nc1CO", "TPP": "inactive", "PreQ1": "inactive"}
{"compound": "Nc1c(-c2nc(-c3ccc(Br)cc3)no2)nnn1-c1ccccc1F", "TPP": "inactive", "PreQ1": "inactive"}
{"compound": "CCCCn1cnc2cc(NCc3cccc(Br)c3)ccc21", "TPP": "inactive", "SAM-II": "inactive", "PreQ1": "inactive"}
{"compound": "COC(=O)c1ccccc1Nc1c(-c2ccco2)nc2cnccn12", "TPP": "inactive", "PreQ1": "inactive"}
{"compound": "Nc1c(C(=O)NC2CCCCC2)sc(=S)n1-c1ccccc1", "TPP": "inactive", "SAM-II": "inactive", "PreQ1": "inactive"}
{"compound": "COC[C@@H](NC(C)=O)C(=O)NCc1ccccc1", "TPP": "inactive", "SAM-II": "inactive", "PreQ1": "inactive"}
{"compound": "CCCC1(CNC2CCN(C(=O)c3cnccn3)CC2)CCC1", "TPP": "inactive", "SAM-II": "inactive", "PreQ1": "inactive"}
{"compound": "Nc1nonc1C(=O)N1CCN(C(=O)COc2ccccc2)CC1", "TPP": "inactive", "PreQ1": "inactive"}
{"compound": "CNCCN1C(=O)CC[C@H]2CN(C(=O)NCc3ccccc3)CC[C@H]21", "TPP": "inactive", "SAM-II": "inactive", "PreQ1": "inactive"}
{"compound": "C[N+](C)([O-])CCNc1ccc(NCC[N+](C)(C)[O-])c2c1C(=O)c1c(O)ccc(O)c1C2=O", "TPP": "inactive", "SAM-II": "inactive", "PreQ1": "inactive"}
{"compound": "OCCN1CCN(C2CCN(Cc3cccc(Br)c3)CC2)CC1", "TPP": "inactive", "SAM-II": "inactive", "PreQ1": "inactive"}
{"compound": "Cn1c2cc(S(C)=O)sc2c2cnn(Cc3cccc(N)c3)c(=O)c21", "stereo": "configuration not stated", "TPP": "inactive", "SAM-II": "inactive", "PreQ1": "inactive"}

Source: the ROBIN nucleic acid binder screens (doi:10.1002/anie.202211358).